Article PMC9576612
These are yes or no findings as the source states them, for the method shown. For some assays here: In cells and extracts the contact can be indirect. Some results given as binding are weak or reduced against the parent protein; the word gives no strength. For some assays here: Where a sequence is shown, tags or fusion partners need not be part of it.

Chains of the proteins cited; added tags and fusions are not shown. Residues count along the entry.
UniProt P36222, residues 22-383: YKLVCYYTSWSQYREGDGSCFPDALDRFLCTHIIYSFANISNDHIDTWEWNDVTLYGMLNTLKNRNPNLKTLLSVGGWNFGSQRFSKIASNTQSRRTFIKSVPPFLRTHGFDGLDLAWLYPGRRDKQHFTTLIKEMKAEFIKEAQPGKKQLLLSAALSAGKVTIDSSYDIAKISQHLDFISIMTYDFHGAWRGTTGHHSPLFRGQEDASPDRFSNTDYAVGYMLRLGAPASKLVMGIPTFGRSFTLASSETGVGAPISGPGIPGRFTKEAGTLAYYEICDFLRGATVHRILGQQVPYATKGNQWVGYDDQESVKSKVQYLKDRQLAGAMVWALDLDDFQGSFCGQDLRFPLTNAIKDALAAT
UniProt O43707: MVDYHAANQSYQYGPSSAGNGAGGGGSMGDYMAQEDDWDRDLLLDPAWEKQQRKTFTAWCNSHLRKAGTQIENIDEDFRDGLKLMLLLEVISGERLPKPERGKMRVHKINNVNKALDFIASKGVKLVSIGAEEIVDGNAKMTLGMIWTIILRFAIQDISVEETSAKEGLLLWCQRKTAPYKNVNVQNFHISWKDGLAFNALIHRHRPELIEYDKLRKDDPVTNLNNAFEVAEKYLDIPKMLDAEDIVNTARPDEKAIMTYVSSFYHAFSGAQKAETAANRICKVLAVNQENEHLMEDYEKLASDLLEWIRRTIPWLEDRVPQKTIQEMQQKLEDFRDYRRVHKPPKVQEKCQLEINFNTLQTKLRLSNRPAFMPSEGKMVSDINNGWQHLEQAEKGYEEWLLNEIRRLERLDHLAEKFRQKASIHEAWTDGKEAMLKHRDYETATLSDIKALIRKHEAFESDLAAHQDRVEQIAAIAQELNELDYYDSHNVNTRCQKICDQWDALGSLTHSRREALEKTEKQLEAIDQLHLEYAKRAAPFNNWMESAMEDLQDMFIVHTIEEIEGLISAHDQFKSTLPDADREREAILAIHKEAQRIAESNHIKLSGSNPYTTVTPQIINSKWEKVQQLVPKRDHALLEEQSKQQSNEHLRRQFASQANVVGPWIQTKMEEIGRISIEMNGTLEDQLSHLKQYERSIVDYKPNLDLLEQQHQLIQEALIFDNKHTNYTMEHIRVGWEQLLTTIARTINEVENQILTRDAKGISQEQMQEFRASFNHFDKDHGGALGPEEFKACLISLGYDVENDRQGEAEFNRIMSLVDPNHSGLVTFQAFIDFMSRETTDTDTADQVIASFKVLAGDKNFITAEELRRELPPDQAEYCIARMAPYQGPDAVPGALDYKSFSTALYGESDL
UniProt P12814: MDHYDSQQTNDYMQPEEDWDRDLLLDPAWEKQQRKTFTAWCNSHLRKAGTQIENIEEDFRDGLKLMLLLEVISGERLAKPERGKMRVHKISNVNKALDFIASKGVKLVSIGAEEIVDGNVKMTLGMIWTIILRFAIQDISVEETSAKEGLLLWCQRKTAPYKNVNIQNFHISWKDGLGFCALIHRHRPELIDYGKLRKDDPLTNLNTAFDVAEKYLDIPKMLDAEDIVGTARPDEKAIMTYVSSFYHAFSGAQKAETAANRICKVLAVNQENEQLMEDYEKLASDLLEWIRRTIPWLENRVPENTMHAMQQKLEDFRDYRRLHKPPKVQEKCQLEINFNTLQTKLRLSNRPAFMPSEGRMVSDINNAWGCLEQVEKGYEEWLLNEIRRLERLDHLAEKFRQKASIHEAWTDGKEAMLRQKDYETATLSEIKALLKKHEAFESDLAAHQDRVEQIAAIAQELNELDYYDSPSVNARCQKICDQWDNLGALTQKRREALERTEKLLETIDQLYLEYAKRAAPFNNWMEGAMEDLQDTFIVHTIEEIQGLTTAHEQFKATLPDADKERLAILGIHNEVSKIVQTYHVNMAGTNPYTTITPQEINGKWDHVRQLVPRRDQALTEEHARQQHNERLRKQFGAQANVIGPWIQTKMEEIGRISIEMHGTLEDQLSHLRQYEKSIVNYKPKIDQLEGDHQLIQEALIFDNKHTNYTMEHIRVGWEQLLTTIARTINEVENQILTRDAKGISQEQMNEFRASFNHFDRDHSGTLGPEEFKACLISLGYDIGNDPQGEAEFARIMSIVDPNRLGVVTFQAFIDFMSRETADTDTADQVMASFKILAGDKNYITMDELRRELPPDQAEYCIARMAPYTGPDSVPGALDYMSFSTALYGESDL
UniProt P19838: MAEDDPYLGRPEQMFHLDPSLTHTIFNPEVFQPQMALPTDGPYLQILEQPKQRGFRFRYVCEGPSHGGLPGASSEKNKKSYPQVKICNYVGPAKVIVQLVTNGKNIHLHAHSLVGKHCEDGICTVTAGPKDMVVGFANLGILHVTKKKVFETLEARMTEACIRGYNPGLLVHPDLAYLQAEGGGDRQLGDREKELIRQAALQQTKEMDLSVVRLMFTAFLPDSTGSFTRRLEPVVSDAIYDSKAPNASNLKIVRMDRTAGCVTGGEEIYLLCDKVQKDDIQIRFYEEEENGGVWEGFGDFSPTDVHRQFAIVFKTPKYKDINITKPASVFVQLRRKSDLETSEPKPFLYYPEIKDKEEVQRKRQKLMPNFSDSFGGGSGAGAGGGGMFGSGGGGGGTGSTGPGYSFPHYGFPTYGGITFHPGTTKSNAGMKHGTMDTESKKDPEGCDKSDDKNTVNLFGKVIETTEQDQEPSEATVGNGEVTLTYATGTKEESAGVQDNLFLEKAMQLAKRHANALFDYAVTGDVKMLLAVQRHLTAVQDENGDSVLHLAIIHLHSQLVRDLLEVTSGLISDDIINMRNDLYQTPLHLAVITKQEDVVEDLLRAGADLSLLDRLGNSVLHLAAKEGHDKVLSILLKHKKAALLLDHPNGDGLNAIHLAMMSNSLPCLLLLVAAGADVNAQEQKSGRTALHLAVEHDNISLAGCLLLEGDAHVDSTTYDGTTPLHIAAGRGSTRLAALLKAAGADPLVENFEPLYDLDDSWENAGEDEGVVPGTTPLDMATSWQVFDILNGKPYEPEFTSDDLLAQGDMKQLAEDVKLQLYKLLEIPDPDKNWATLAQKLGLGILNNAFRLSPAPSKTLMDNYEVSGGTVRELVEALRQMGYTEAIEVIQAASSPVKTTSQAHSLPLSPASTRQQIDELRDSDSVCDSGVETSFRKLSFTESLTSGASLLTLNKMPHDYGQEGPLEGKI

How the values were obtained:
[1] = target: CHI3L1 (Chitinase-3-like protein 1), endogenous in glioblastoma cells (human (endogenous in U87MG and A172)) (UniProt P36222); assay: co-IP; cytoplasmic and nuclear proteins isolated from U87MG cells, immunoprecipitated with IgG or anti-CHI3L1 antibody, immunoblot
[2] = target: CHI3L1 (Chitinase-3-like protein 1), endogenous in glioblastoma cells (human (endogenous in U87MG and A172)) (UniProt P36222); assay: co-IP; whole lysates of U87MG and A172 cells in IP buffer (20 mM Tris pH 7.5, 150 mM NaCl, 1% TritonX-100, 1 mM EDTA); anti-CHI3L1 antibody or IgG overnight at 4 °C, protein G agarose; immunoblot
[3] = target: ACTN4 (actinin alpha 4; GST-tagged, on the HuProt 20K human proteome microarray) (human) (UniProt O43707); assay: peptide or protein array; HuProt 20K human proteome microarray with over 21,000 affinity-purified GST-tagged proteins, probed with biotin-hCHI3L1; both purified
[4] = target: T1, NFKBIB (GST-tagged, on the HuProt 20K human proteome microarray) (human) (UniProt Q15653); assay: as above
T1 sequence: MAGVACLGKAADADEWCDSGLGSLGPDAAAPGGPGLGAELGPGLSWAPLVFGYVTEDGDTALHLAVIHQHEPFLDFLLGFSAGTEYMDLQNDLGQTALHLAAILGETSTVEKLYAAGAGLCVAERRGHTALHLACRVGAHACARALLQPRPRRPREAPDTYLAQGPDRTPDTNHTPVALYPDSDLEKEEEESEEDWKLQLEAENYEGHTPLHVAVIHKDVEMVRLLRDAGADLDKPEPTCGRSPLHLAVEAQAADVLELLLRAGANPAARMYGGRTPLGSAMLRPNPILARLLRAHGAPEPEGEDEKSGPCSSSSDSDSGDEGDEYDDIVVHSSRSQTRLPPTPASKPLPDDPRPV

[5] = target: T2, NFKB2 (GST-tagged, on the HuProt 20K human proteome microarray) (human) (UniProt Q00653); assay: as above
T2 sequence: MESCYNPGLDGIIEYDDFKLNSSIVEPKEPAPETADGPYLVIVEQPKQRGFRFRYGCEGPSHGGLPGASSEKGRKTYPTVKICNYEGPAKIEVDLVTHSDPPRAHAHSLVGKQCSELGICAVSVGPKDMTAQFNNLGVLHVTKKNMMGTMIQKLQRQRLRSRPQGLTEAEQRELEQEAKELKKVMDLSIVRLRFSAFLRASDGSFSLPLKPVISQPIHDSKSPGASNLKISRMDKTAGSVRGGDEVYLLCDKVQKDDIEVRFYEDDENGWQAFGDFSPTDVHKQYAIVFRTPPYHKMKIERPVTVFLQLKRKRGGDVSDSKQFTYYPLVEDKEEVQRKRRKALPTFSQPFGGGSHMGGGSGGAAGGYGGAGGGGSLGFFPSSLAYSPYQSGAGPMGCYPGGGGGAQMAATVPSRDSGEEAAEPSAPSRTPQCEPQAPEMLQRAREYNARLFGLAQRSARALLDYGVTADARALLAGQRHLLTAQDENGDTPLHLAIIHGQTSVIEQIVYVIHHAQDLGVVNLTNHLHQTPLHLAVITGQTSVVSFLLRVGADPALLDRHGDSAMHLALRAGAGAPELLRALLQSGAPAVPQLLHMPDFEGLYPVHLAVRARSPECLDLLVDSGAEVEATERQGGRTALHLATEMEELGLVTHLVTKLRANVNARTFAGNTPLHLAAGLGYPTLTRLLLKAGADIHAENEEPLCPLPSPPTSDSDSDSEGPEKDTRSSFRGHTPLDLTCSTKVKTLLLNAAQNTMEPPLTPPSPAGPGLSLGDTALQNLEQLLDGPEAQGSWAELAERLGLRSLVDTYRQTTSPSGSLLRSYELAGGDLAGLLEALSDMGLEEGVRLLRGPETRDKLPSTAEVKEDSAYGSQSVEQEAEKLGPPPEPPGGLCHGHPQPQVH

[6] = target: ACTN1 (GST-tagged, on the HuProt 20K human proteome microarray) (human) (UniProt P12814); assay: as above
[7] = target: NFKB1 (GST-tagged, on the HuProt 20K human proteome microarray) (human) (UniProt P19838); assay: as above

| binding [1] | binding [2] | binding [3] | binding [4] | binding [5] | binding [6] | binding [7] | Substance |
| --- | --- | --- | --- | --- | --- | --- | --- |
| binds | binds | – | – | – | – | – | ACTN4 (actinin alpha 4), endogenous in glioblastoma cells (from UniProt O43707 1-911) |
| binds | – | – | – | – | – | – | NFKB1, endogenous in U87MG cells (from UniProt P19838 1-968) |
| – | – | binds | binds | binds | binds | binds | recombinant human CHI3L1 (Chitinase-3-like protein 1), biotin-labelled (from UniProt P36222 22-383) |
